Measured values from paper PMC12421412.
Results are given in words; binding and its absence hold for the method and conditions named. In cells and extracts the contact can be indirect. These calls come from enrichment with a bait or labelling near it, and not all partners need be listed.

Amino acid sequences for entries named in this document (tags omitted). Residues count along the entry.
UniProt Q92673, residues 82-2214: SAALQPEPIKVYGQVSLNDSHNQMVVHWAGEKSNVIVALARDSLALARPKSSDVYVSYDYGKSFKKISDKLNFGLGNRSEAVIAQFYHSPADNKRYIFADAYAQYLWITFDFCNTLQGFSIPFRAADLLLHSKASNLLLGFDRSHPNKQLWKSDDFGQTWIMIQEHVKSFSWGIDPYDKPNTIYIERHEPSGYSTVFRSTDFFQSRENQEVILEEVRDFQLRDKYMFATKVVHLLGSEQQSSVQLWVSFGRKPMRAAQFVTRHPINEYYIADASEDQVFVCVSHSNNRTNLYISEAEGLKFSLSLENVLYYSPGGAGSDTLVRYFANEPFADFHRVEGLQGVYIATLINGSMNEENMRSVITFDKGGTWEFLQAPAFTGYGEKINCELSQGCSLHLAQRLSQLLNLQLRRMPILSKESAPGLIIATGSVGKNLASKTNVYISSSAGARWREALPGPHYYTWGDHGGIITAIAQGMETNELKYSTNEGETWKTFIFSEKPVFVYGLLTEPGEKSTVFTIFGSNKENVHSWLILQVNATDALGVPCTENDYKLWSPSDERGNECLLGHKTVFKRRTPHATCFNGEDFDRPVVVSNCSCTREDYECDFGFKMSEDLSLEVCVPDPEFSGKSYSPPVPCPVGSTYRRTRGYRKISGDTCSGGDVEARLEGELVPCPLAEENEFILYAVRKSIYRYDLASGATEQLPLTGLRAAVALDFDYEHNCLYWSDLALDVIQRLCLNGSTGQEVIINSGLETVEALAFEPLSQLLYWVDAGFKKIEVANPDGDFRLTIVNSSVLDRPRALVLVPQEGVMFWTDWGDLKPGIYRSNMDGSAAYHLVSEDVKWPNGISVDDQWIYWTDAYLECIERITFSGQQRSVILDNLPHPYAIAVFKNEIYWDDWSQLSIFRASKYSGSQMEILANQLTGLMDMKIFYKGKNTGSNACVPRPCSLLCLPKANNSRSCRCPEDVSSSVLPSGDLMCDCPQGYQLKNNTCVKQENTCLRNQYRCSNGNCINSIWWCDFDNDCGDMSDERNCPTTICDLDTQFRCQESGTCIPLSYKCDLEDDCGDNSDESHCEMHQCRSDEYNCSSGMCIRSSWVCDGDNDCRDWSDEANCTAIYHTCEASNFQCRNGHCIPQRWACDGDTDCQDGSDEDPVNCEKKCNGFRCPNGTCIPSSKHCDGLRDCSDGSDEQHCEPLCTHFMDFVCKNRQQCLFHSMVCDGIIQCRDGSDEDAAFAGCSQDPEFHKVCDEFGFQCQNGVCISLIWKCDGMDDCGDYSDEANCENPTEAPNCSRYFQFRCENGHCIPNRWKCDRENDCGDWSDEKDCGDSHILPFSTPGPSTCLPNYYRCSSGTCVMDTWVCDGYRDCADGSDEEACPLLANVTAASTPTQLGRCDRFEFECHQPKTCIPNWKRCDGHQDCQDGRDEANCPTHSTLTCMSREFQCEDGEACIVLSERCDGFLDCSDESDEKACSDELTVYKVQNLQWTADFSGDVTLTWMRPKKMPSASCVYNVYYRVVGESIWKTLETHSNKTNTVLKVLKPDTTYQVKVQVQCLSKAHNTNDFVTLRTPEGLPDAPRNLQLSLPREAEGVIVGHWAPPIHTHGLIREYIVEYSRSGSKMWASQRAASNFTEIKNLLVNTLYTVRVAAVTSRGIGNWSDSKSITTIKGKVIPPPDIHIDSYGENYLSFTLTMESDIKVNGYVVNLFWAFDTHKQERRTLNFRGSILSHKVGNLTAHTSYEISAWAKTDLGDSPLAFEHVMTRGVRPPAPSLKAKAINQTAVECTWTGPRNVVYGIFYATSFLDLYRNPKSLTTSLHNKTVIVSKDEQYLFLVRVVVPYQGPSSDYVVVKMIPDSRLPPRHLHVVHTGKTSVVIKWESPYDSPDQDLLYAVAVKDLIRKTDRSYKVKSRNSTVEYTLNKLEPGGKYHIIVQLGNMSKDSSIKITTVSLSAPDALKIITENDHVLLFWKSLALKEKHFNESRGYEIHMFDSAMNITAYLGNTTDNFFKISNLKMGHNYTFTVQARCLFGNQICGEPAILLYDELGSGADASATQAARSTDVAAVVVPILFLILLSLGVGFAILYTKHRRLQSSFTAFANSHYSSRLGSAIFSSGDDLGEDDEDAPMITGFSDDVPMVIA
UniProt P05067, residues 18-770: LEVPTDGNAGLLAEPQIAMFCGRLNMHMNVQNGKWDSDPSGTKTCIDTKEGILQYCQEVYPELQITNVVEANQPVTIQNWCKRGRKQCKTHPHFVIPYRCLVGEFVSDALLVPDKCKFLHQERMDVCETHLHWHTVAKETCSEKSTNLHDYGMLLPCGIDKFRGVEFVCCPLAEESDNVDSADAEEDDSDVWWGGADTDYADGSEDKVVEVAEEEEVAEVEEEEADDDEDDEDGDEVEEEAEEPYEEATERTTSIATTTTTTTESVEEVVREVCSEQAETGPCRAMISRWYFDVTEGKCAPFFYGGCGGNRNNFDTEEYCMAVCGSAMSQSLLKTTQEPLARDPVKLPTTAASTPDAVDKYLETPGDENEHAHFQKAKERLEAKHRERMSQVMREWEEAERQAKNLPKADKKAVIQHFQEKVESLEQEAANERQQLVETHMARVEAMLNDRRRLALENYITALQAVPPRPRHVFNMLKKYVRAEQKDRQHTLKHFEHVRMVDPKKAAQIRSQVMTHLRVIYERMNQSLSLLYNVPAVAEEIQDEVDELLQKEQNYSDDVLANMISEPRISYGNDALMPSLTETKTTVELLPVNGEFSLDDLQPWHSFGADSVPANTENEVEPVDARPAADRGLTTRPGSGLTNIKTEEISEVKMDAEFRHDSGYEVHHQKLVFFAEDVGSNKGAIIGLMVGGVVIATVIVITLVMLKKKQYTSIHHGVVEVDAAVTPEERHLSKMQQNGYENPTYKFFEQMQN

Biological target: SORLA^WT (human wildtype Sortilin-related receptor with A-type repeats) stably expressed in SH-SY5Y cells (human) (UniProt Q92673)
Experiment: affinity purification with mass spectrometry; SILAC-labelled SH-SY5Y cells overexpressing SORLA; lysis in Tris-HCl pH 8.0, 20 mM NaCl, 0.6% sodium deoxycholate, 0.6% NP-40; immunoprecipitation with goat anti-human SORLA IgG or non-immune IgG on magnetic beads

Question: How did the binding turn out when “amyloid precursor protein (APP), in SH-SY5Y cell lysate (from UniProt P05067 18-770)” was run?
Answer: The binding was “binds”.
